Laboratory results reported in patent US11124541B2 (REGENTS OF THE UNIVERSITY OF MINNESOTA, priority 2016, dated 2021).

test: general procedure: Fmoc solid-phase peptide synthesis; H-Pro-2-Chlorotrityl resin (0.76 meq/g); HBTU/DIPEA; cyclization with BOP/HOBt; conditions: whole synthesis, 214 nm, scale of the general procedure 0.10 mmol

Substance | final HPLC purity [%]
cyclo(PH[dF]RWNAF[dP]) | >99
cyclo(PH[dF]RWNA[dP]) | >95
cyclo(PH[dF]RWN[dP]) | >96
cyclo(PH[dF]RW[Dap]AF[dP]) | >99
cyclo(PH[dF]RW[Dap][dP]) | >96
cyclo(PH[dF]RW[dP]) | >98
cyclo(P[dF]RWNAF[dP]) | >99
cyclo(P[dF]RWNA[dP]) | >97
cyclo(P[dF]RWN[dP]) | >95
cyclo(P[dF]RW[Dap]AF[dP]) | >99
cyclo(P[dF]RW[Dap]A[dP]) | >98
cyclo(P[dF]RW[Dap][dP]) | >96
cyclo(P[dF]RW[dP]) | >96

Non-standard residues stand in square brackets, D forms with d. Dap = NC[C@H](N)C(=O)O
